The values are deposited in ChEMBL (CHEMBL3988442, “University of Dundee, Small-Polar-MMV Screening Library” (2021)).

Mtb growth Cornell: 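Whole-cell assay for inhibitors of Mycobacterium tuberculosis growth, labelled Cornell in the record; the read-out is not stated. The concentration is filed as 10 mM, unlikely as a test dose, so the dose is not known. Higher means stronger inhibition (inferred from two other growth screens of the library). Size under these conditions: about 53,000 compounds, about 900 of them at 50% or above in at least one test.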
Mtb heat-shock: 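Assay on Mycobacterium tuberculosis, filed only as a heat shock assay from Cornell; the read-out is not stated. The concentration is filed as 10 mM, unlikely as a test dose, so the dose is not known. Direction is inferred from retests: higher values go with stronger inhibition. Size under these conditions: about 69,000 compounds, about 930 of them at 50% or above in at least one test.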

Results are given as percent effect.
The record does not define 0% and 100%; most values in the screen are far below 50% and negative numbers occur (in some assays of this library far below -100).
Compounds were drawn at random from those tested, without regard to their results.

- COc1ccc(N(C)C(=O)C2CN(C)CCO2)cc1Cl (centres unmarked) : Mtb growth Cornell: -11.72%; Mtb heat-shock: -14.72%
- Cc1nn(C)c(C)c1C1CCCN1CC(=O)Nc1cc(C(C)C)no1 (centres unmarked) : Mtb heat-shock: -6.522%
- Cc1cccc(C(C(=O)NCc2csc(-c3ncccn3)n2)N(C)C)c1 (centres unmarked) : Mtb growth Cornell: 1.13%; Mtb heat-shock: -14.86%
- O=C(O)C(F)(F)F.O=C(O)C(F)(F)F.O=C(O)C(F)(F)F.[H][C@@]12COC[C@@H](N3CCN(C)CC3)[C@]1([H])CN(Cc1ccc(OC)cc1)C2 : Mtb growth Cornell: -1.32%; Mtb heat-shock: -0.6147%
- O=C(NCCN1CCOCC1)c1nc2ccccc2c(=O)[nH]1 : Mtb growth Cornell: 13.44%; Mtb heat-shock: -23.88%
- CCCc1ncc(CNC2(c3ccc(Cl)cc3)CC2)cn1 : Mtb growth Cornell: -27%; Mtb heat-shock: -12.08%
- CCn1ccnc1CN1CCN(Cc2ccccn2)CC1C (centres unmarked) : Mtb growth Cornell: 5.392%; Mtb heat-shock: -13.62%
- [H][C@@]12COC[C@]1(COc1ccc(C#N)cn1)CN(Cc1scnc1C)C2 : Mtb growth Cornell: 15.22%; Mtb heat-shock: -36.08%
- CC(C(=O)Nc1ccccc1F)S(C)(=O)=O (centres unmarked) : Mtb growth Cornell: 1.912%; Mtb heat-shock: -11.12%
- Cc1cccc(S(=O)(=O)N2Cc3nccn3CC(CN(C)C)C2)c1 (centres unmarked) : Mtb growth Cornell: -9.638%; Mtb heat-shock: 7.209%
- Cc1cc(N2CCC(N(C)C(=O)c3ccc(C#N)cc3)CC2)nc(C)n1 : Mtb growth Cornell: -13.62%; Mtb heat-shock: -24.64%
- COc1cc(N2CCC3(CC2)C(c2ccncc2)CC(=O)N3C)ncn1 (centres unmarked) : Mtb growth Cornell: 3.198%; Mtb heat-shock: -10.15%
- CCOCc1nn(C)c2c1CN(C(=O)c1ccno1)CC2 : Mtb growth Cornell: 9.849%; Mtb heat-shock: -27.52%
- CC(C)C1CN(C(=O)c2ccn(C)c(=O)c2)c2ccccc2N1 (centres unmarked) : Mtb growth Cornell: -0.3685%; Mtb heat-shock: 6.078%
- N#Cc1cnn(-c2ccc(C(=O)Nc3ccccn3)cc2)c1N : Mtb growth Cornell: 21.96%; Mtb heat-shock: 21.83%
- COc1cc2c(cc1C(=O)N1CCCCC1c1ccccn1)CCC2 (centres unmarked) : Mtb growth Cornell: 27.61%; Mtb heat-shock: 7.241%
- Cc1noc(C)c1CC(=O)N1CC[C@@](C)(O)[C@H](Oc2ccccc2)C1 : Mtb growth Cornell: 17.01%; Mtb heat-shock: 11.93%
- Fc1ccc(CN2CCCC2c2cncc(-n3ccnc3)n2)cc1 (centres unmarked) : Mtb heat-shock: 2.039%
- Cc1nc(CN2CC(Cc3ccccc3)CC2=O)no1 (centres unmarked) : Mtb growth Cornell: 13.71%; Mtb heat-shock: 35.63%
- CCN(Cc1ccncc1)Cc1cn(-c2ccccc2)nn1 : Mtb growth Cornell: 16.74%; Mtb heat-shock: 17%
- Cc1noc(C)c1CN(C)CCc1nc(-c2cccc(Cl)c2)no1 : Mtb heat-shock: -15.98%
- CC(C)CN1CCc2[nH]cnc2C12CCN(C(=O)c1cnn(C)c1)CC2 : Mtb growth Cornell: 32.22%; Mtb heat-shock: 19.22%
- CC(C)N(C)Cc1cncc2c1CCN(Cc1ccoc1)C2.Cl.Cl.Cl : Mtb growth Cornell: -23.16%; Mtb heat-shock: 22.24%
- O=C(N[C@@H]1CC[C@@H](n2ccnc2)[C@@H]1O)c1cc2c(s1)CCC2 : Mtb growth Cornell: 23.76%; Mtb heat-shock: -14.16%
- Cc1ccsc1CN(CCN(C)C)Cc1ccccn1 : Mtb growth Cornell: 3.624%; Mtb heat-shock: -2.207%